Read-outs that look alike come from different tables or passages of the source. The structures given here were assigned with low confidence; some may be wrong.
Tests used:
Assay type in all cases: cell-based
[1] = molecular target: HER2 (A775_G776insYVMA) expressing Ba/F3 stable cell line (Homo sapiens, UniProt P04626, DUP772-775, cells depend on it); assay: Cellular proliferation (Alamar Blue) assay, HER2 (A775_G776insYVMA) Ba/F3
[2] = molecular target: EGFR (H773insNPH) expressing Ba/F3 stable cell line (Homo sapiens, UniProt P00533, DUP771-773, cells depend on it); assay: Cellular proliferation (Alamar Blue) assay, EGFR (H773insNPH) Ba/F3
[3] = molecular target: EGFR(D770_N771insSVD) expressing Ba/F3 stable cell line (Homo sapiens, UniProt P00533, DUP768-770, cells depend on it); assay: Cellular proliferation (Alamar Blue) assay, EGFR(D770_N771insSVD) Ba/F3
[4] = test system: A431 cells; assay: Cellular proliferation (Alamar Blue) assay, A431 cells
[5] = molecular target: EGFR (A767_dupASV) expressing Ba/F3 stable cell line (Homo sapiens, UniProt P00533, DUP767-769, cells depend on it); assay: Cellular proliferation (Alamar Blue) assay, EGFR (A767_dupASV) Ba/F3
[6] = read-out: YVMA IC50, 72 hr, tested form: TFA
[7] = read-out: NPH IC50, 72 hr, tested form: TFA
[8] = read-out: D770 IC50, 72 hr, tested form: TFA
[9] = read-out: A431 IC50, 72 hr, tested form: TFA
[10] = read-out: A767 IC50, 72 hr, tested form: TFA

Protein sequences, listed by entry. Tags and fused reporters are not part of them. Chains listed by the source or under a name are the forms on record and can include a tag or linker.
UniProt P04626, with tags, fused parts or gaps DUP772-775: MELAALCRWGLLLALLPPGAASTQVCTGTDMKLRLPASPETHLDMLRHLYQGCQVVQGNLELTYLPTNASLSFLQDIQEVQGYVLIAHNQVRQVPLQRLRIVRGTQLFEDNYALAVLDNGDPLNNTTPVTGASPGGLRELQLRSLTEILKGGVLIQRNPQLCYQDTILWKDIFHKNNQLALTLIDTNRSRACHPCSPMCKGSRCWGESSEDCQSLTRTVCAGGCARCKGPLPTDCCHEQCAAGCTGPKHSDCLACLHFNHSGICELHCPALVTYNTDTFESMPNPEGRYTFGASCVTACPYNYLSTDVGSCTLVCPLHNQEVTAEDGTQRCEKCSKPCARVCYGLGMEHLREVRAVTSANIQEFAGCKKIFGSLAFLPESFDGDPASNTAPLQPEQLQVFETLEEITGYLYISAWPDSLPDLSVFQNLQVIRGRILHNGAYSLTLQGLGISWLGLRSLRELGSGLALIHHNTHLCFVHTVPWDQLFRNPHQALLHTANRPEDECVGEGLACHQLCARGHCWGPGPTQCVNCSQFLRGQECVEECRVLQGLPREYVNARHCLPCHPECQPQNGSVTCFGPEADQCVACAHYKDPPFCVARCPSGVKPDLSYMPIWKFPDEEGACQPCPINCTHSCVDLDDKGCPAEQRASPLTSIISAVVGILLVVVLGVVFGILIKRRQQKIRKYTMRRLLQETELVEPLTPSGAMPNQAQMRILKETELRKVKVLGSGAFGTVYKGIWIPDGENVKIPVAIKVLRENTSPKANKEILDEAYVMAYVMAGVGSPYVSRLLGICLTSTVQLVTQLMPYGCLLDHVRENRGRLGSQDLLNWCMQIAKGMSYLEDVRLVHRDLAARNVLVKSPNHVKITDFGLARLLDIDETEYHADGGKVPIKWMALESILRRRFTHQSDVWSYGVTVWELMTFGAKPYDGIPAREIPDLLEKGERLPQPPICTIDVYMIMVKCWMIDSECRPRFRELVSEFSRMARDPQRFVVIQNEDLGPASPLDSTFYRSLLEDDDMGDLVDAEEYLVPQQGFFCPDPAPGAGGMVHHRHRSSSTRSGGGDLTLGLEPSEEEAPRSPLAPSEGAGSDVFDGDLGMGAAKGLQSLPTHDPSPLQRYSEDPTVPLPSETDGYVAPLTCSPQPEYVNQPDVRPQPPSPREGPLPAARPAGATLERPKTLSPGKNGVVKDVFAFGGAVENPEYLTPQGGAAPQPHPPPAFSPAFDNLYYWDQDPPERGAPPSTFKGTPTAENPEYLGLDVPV
UniProt P00533, with tags, fused parts or gaps DUP767-769: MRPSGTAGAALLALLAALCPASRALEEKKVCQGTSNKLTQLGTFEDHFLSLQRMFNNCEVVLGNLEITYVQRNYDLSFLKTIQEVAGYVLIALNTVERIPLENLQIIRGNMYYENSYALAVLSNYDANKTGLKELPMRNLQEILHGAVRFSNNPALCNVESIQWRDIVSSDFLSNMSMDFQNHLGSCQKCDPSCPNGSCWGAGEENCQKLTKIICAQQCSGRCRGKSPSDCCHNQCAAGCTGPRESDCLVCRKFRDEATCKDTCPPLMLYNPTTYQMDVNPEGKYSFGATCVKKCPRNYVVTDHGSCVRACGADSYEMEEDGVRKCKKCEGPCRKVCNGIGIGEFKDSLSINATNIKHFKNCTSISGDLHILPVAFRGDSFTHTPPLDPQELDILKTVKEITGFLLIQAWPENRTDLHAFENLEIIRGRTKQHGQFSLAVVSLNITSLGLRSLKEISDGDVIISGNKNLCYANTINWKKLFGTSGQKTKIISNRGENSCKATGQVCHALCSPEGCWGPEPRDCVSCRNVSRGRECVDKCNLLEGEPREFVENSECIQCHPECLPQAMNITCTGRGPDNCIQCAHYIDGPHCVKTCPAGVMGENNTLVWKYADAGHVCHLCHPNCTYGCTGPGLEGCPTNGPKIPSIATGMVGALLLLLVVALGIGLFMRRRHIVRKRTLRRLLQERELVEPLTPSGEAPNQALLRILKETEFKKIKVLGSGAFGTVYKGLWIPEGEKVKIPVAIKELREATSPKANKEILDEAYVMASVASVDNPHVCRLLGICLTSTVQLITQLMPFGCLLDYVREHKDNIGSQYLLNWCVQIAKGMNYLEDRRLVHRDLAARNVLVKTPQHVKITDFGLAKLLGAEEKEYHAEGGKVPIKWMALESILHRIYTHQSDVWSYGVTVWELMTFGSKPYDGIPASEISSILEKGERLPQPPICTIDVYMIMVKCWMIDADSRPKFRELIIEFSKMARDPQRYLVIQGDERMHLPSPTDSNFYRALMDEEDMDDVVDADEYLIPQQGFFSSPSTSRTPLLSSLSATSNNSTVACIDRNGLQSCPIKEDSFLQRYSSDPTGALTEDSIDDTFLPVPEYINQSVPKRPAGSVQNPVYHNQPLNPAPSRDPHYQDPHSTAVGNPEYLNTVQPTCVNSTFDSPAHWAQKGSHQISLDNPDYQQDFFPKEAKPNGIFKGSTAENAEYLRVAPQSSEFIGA
UniProt P00533, with tags, fused parts or gaps DUP768-770: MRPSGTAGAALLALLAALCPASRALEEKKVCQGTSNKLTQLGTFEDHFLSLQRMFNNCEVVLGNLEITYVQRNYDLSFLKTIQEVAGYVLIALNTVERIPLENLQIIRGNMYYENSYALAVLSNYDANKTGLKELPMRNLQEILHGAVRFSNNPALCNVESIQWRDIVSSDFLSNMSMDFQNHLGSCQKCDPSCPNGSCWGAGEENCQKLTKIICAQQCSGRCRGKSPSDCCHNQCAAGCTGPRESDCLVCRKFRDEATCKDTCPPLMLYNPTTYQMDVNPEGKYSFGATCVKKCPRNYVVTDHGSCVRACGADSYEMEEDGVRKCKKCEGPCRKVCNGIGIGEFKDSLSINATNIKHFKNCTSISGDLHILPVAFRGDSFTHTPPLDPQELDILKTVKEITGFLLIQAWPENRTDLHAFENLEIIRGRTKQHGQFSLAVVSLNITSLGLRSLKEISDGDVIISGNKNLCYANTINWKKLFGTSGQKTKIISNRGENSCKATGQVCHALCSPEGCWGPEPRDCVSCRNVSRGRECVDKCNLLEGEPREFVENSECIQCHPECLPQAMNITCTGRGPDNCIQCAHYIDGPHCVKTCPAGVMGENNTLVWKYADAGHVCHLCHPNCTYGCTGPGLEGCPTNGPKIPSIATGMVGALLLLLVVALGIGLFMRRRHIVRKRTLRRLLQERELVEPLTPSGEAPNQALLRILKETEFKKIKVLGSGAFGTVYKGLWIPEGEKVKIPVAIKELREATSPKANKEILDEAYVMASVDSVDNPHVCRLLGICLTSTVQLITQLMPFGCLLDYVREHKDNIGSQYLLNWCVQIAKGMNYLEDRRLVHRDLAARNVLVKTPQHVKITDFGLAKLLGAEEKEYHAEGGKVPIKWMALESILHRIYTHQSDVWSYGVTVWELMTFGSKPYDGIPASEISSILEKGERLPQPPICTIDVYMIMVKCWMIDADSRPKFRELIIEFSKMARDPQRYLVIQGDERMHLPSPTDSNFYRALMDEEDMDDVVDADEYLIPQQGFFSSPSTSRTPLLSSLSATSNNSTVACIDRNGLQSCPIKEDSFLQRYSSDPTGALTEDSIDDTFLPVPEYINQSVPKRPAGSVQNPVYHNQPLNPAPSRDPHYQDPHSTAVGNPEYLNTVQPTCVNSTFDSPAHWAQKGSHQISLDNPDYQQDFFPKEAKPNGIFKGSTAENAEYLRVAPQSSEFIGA
UniProt P00533, with tags, fused parts or gaps DUP771-773: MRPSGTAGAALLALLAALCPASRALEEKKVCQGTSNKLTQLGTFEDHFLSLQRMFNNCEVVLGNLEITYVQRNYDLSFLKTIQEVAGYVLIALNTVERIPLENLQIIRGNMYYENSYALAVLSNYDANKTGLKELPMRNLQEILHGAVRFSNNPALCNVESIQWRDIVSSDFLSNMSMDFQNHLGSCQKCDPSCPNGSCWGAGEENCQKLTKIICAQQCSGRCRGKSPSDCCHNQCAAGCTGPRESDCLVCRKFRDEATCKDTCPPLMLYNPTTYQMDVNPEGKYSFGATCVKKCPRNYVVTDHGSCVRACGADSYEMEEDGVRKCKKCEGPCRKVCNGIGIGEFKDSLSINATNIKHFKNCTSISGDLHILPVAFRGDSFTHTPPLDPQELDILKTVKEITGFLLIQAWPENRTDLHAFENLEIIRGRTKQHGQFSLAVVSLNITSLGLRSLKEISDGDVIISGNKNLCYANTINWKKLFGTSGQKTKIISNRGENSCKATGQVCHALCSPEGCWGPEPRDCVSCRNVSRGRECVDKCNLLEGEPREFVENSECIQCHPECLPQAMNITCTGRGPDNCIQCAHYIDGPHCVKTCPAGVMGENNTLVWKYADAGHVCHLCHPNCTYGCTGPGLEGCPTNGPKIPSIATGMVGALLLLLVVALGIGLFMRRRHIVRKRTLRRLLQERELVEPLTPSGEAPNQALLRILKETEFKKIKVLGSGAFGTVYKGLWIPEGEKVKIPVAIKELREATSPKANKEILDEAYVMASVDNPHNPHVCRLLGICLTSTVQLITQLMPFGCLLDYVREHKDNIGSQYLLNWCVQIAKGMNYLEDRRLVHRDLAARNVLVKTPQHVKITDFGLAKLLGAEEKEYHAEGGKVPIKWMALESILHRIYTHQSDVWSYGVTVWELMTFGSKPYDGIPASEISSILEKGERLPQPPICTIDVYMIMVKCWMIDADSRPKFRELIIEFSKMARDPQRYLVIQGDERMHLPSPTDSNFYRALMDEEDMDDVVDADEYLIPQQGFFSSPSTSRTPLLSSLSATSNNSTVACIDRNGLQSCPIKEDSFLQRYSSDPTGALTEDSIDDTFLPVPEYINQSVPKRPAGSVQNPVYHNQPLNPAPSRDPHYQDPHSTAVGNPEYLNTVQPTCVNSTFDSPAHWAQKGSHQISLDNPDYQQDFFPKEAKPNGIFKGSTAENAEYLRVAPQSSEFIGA

Row | SMILES | GI50 [1, 6] | GI50 [2, 7] | GI50 [3, 8] | IC50 [4, 9] | GI50 [5, 10] | GI50 ([1]; read-out: YVMA IC50, 72 hr) | GI50 ([3]; read-out: D770 IC50, 72 hr) | IC50 ([4]; read-out: A431 IC50, 72 hr) | GI50 ([5]; read-out: A767 IC50, 72 hr) | GI50 ([2]; read-out: NPH IC50, 72 hr)
1 | C=CC(=O)Nc1cccc(Oc2nc(Nc3cnn(C)c3)ncc2-c2cnc(OC)c(F)c2)c1 | 62 nM | 38 nM | 25 nM | 150 nM | 30 nM |  |  |  |  | 
2 | C=CC(=O)Nc1cccc(Oc2nc(Nc3cnn(C)c3)ncc2-c2cnc(F)c(F)c2)c1 | 65 nM | 23 nM | 34 nM | 586 nM | 25 nM |  |  |  |  | 
3 | C=CC(=O)Nc1cccc(Oc2nc(Nc3cnn(C)c3)ncc2-c2ccc(C)c(F)c2)c1 |  |  |  |  |  | 129 nM | 37 nM | 196 nM | 83 nM | 
4 | C=CC(=O)Nc1cccc(Oc2nc(Nc3cnn(C)c3)ncc2-c2ccc(Cl)c(Cl)c2)c1 |  |  | 168 nM | 821 nM |  |  |  |  |  | 
5 | C=CC(=O)Nc1cccc(Oc2nc(Nc3cnn(C)c3)ncc2-c2cnc(Cl)c(C)c2)c1 |  |  |  |  |  | 227 nM | 84 nM | 1680 nM | 96 nM | 61 nM
6 | C=CC(=O)Nc1cccc(Oc2nc(Nc3cnn(C)c3)ncc2-c2ccc(N(C)C)c(F)c2)c1 | 197 nM | 44 nM | 50 nM | 108 nM | 91 nM |  |  |  |  | 
7 | C=CC(=O)Nc1cccc(Oc2nc(Nc3cnn(C)c3)ncc2-c2cnc(Cl)c(C(F)(F)F)c2)c1 |  |  |  |  |  | 104 nM |  | 985 nM | 95 nM | 153 nM
8 | C=CC(=O)Nc1cccc(Oc2nc(Nc3cnn(C)c3)ncc2-c2ccc(F)c(F)c2)c1 |  |  |  |  |  | 212 nM | 71 nM | 767 nM | 91 nM | 140 nM
9 | C=CC(=O)Nc1cccc(Oc2nc(Nc3cnn(C)c3)ncc2-c2ccc(OC)c(F)c2)c1 |  |  |  |  |  | 62 nM | 24 nM | 195 nM | 17 nM | 52 nM
10 | C=CC(=O)Nc1cccc(Oc2nc(Nc3cnn(C)c3)ncc2-c2cnc(Cl)c(F)c2)c1 |  |  |  |  |  | 57 nM |  | 608 nM | 34 nM | 
11 | C=CC(=O)Nc1cccc(Oc2nc(Nc3cnn(C)c3)ncc2-c2ccc(Cl)c(F)c2)c1 |  |  |  |  |  | 146 nM | 35 nM | 482 nM | 42 nM | 82 nM
12 | C=CC(=O)Nc1cccc(Oc2nc(Nc3cnn(C)c3)ncc2-c2ccc(F)c(Cl)c2)c1 |  |  |  |  |  | 483 nM | 271 nM | 1320 nM | 136 nM | 310 nM

Reference: US20230416232A1, “PYRIMIDINE COMPOUNDS, COMPOSITIONS, AND MEDICINAL APPLICATIONS THEREOF” (Blueprint Medicines Corporation, priority 2020, published 2023)
